Literature values as cited in US20090069271A1, “WOOD TREATMENT” (priority 2005, published 2009).
Some of these results come from one statement about several compounds together. At least one compound was matched to its structure with a doubt left.

Details: aqueous dioxane; tri-(dicyclohexylcarbinyl) borate = 1; cited from earlier work
In the case of `ClCC(CCl)OB(OC(CCl)CCl)OC(CCl)CCl` [Tri-(1,3-dichloro-2-propyl) borate], the “Relative rate of hydrolysis” value is given as >5.87 × 10^5. For `CC1CC(C)(C)OB(OC(C)CC(C)(C)OB2OC(C)CC(C)(C)O2)O1` (stereo not drawn) [Tri-(hexylene glycol) biborate], the “Relative rate of hydrolysis” value is given as >5.87 × 10^5. For `c1ccc(C2CCCCC2)c(OB(Oc2ccccc2C2CCCCC2)Oc2ccccc2C2CCCCC2)c1` [Tri-(o-cyclohexylphenyl) borate], the “Relative rate of hydrolysis” value is given as >5.87 × 10^5. For `c1ccc(-c2ccccc2OB(Oc2ccccc2-c2ccccc2)Oc2ccccc2-c2ccccc2)cc1` [Tri-(o-phenylphenyl) borate], the “Relative rate of hydrolysis” value is listed as >5.87 × 10^5. For `CCCCOB(OCCCC)OCCCC` [Tri-n-butyl borate], the “Relative rate of hydrolysis” value is given as >5.87 × 10^5. For `CCCOB(OCCC)OCCC` [Tri-n-propyl borate], the “Relative rate of hydrolysis” value is listed as >5.87 × 10^5. For `Cc1ccccc1OB(Oc1ccccc1C)Oc1ccccc1C` [Tri-o-cresyl borate], the “Relative rate of hydrolysis” value is given as >5.87 × 10^5. For `CCOB(OCC)OCC` [Triethyl borate], the “Relative rate of hydrolysis” value is given as >5.87 × 10^5. In the case of `CC(C)COB(OCC(C)C)OCC(C)C` [Triisobutyl borate], the “Relative rate of hydrolysis” value is given as >5.87 × 10^5. For `CC(C)OB(OC(C)C)OC(C)C` [Triisopropyl borate], the “Relative rate of hydrolysis” value is given as >5.87 × 10^5. For `COB(OC)OC` [Trimethyl borate], the “Relative rate of hydrolysis” value is given as >5.87 × 10^5. In the case of `c1ccc(OB(Oc2ccccc2)Oc2ccccc2)cc1` [Triphenyl borate], the “Relative rate of hydrolysis” value is listed as >5.87 × 10^5.
